In patent US20210179940A1, “WIDE TEMPERATURE RANGE AND HIGH PHOTOCHEMICAL STABILITY SMECTIC LIQUID CRYSTAL COMPOSITIONS WITH A MONOLAYER SMECTIC A PHASE (SMA1), METHOD OF OBTAINING THEREOF AND DEVICES UTILIZING THEREOF” (WOJSKOWA AKADEMIA TECHNICZNA, priority 2017, published 2021):
“Also recorded” adds a separate entry of the source.

What was measured:
[1] = dynamic scattering effect, threshold and saturation voltages of doped composition 18; conditions: prepared in fluorobenzene, RT; for Vs(sc) saturation voltage, scattering state / Vth(sc) threshold voltage, scattering state: f = 50 Hz
[2] = dynamic scattering effect, threshold and saturation voltages of doped composition 21; design: key to Quality: G: parameters of the dynamic state and the clear state - good; M: parameters of the dynamic state and the clear state - moderate; W: parameters of the dynamic state and the clear state - weak; conditions: composition 21, dopant 6.58 · 10^−3 mol/kg, RT
[3] = composition 18, dopant 8.78 · 10^−3 mol/kg
[4] = composition 18, dopant 8.78 · 10^−3 mol/kg, f = 1 kHz
[5] = composition 18, dopant 8.78 · 10^−3 mol/kg, f = 3 kHz
[6] = composition 18, dopant 8.78 · 10^−3 mol/kg, f = 5 kHz
[7] = composition 18, dopant 8.78 · 10^−3 mol/kg, f = 0.8 kHz
[8] = composition 18, dopant 6.58 · 10^−3 mol/kg, f = 0.8 kHz
[9] = composition 18, dopant 6.58 · 10^−3 mol/kg
[10] = composition 18, dopant 6.58 · 10^−3 mol/kg, f = 1 kHz
[11] = composition 18, dopant 6.58 · 10^−3 mol/kg, f = 3 kHz
[12] = composition 18, dopant 6.58 · 10^−3 mol/kg, f = 5 kHz
[13] = composition 18, dopant 2.19 · 10^−3 mol/kg, f = 0.8 kHz
[14] = composition 18, dopant 2.19 · 10^−3 mol/kg, f = 1 kHz
[15] = composition 18, dopant 2.19 · 10^−3 mol/kg, f = 3 kHz
[16] = composition 18, dopant 2.19 · 10^−3 mol/kg, f = 5 kHz
[17] = composition 18, dopant 2.19 · 10^−3 mol/kg

1-hexadecyl-1,8-diazabicyclo[5,4,0]undec-7-enium 3,5-difluoro-4-cyanophenolate [II.16n]
Vs(sc) saturation voltage, scattering state [1, 3]: 270 V | Vth(sc) threshold voltage, scattering state [1, 3]: 220 V

1-hexadecyl-1,8-diazabicyclo[5.4.0]undec-7-enium 3,4-difluorophenolate [II.16k]
Vs(c) saturation voltage, clear state [1, 4]: 120 V | Vth(c) threshold voltage, clear state [1, 4]: 90 V | Vs(c) saturation voltage, clear state [1, 5]: 120 V | Vth(c) threshold voltage, clear state [1, 5]: 90 V | Vs(c) saturation voltage, clear state [1, 6]: 130 V | Vth(c) threshold voltage, clear state [1, 6]: 90 V | Vs(sc) saturation voltage, scattering state [1, 3]: 220 V | Vth(sc) threshold voltage, scattering state [1, 3]: 120 V

1-hexadecyl-1,8-diazabicyclo[5.4.0]undec-7-enium 4-dodecylbenzenesulphonate [II.16g12]
Vs(c) saturation voltage, clear state [1, 7]: 150 V | Vth(c) threshold voltage, clear state [1, 7]: 140 V | Vs(c) saturation voltage, clear state [1, 4]: 150 V | Vth(c) threshold voltage, clear state [1, 4]: 140 V | Vs(c) saturation voltage, clear state [1, 5]: 150 V | Vth(c) threshold voltage, clear state [1, 5]: 140 V | Vth(c) threshold voltage, clear state [1, 6]: 150 V | Vs(sc) saturation voltage, scattering state [1, 3]: 190 V | Vth(sc) threshold voltage, scattering state [1, 3]: 100 V | Quality [2]: G | Vs(c) saturation voltage, clear state ([2]; f = 0.8 kHz): 70 V | Vth(c) threshold voltage, clear state ([2]; f = 0.8 kHz): 70 V | Vs(c) saturation voltage, clear state ([2]; f = 1 kHz): 70 V | Vth(c) threshold voltage, clear state ([2]; f = 1 kHz): 70 V | Vs(c) saturation voltage, clear state ([2]; f = 3 kHz): 70 V | Vth(c) threshold voltage, clear state ([2]; f = 3 kHz): 70 V | Vs(c) saturation voltage, clear state ([2]; f = 5 kHz): 70 V | Vth(c) threshold voltage, clear state ([2]; f = 5 kHz): 70 V | Vs(c) saturation voltage, clear state ([2]; f = 7 kHz): 80 V | Vth(c) threshold voltage, clear state ([2]; f = 7 kHz): 70 V | Vs(sc) saturation voltage, scattering state ([2]; f = 50 Hz): 130 V | Vth(sc) threshold voltage, scattering state ([2]; f = 50 Hz): 120 V

CCCCCCCCCCCCCCCC[N+](C)(C)C.[Br-] [I.16b, hexadecyltrimethylammonium bromide, reference compound]
dynamic scattering (observation) [1, 3]: not observed up to voltage 400V; also recorded: no dynamic scattering

CC[N+]12CCCCCC1=NCCC2.[Br-] (centres unmarked) [II.2b, 1-ethyl-1,8-diazabicyclo[5.4.0] undec-7-enium bromide]
Vs(c) saturation voltage, clear state [1, 8]: 120 V | Vth(c) threshold voltage, clear state [1, 8]: 120 V | Vth(sc) threshold voltage, scattering state [1, 9]: 300 V

CCCCCCCCCCCCCCCC[N+]1=C2CCCCCN2CCC1 [II.16c, 1-Hexadecyl-1,8-diazabicyclo[5.4.0]undec-7-enium chlorate (VII)]
Vth(c) threshold voltage, clear state [1, 4]: 120 V | Vs(sc) saturation voltage, scattering state [1, 3]: 250 V | Vth(sc) threshold voltage, scattering state [1, 3]: 190 V

C1COCCOCCOCCOCCOCCO1.[K+].[O-]c1ccc(F)c(F)c1 [IIIk, complex of 18-crown-6 ether with potassium 3,4-difluorophenolate]
Vs(c) saturation voltage, clear state [1, 8]: 130 V | Vth(c) threshold voltage, clear state [1, 8]: 100 V | Vs(c) saturation voltage, clear state [1, 10]: 120 V | Vth(c) threshold voltage, clear state [1, 10]: 110 V | Vs(c) saturation voltage, clear state [1, 11]: 110 V | Vth(c) threshold voltage, clear state [1, 11]: 100 V | Vs(c) saturation voltage, clear state [1, 12]: 120 V | Vth(c) threshold voltage, clear state [1, 12]: 110 V | Vs(sc) saturation voltage, scattering state [1, 9]: 200 V | Vth(sc) threshold voltage, scattering state [1, 9]: 120 V

CCCCCCCCCCCCc1ccc(S(=O)(=O)[O-])cc1.[K+].c1ccc2c(c1)OCCOCCOc1ccccc1OCCOCCO2 [IVg12, Complex of dibenzo-18-crown-6 ether with potassium 4-dodecylbenzenesulphonate]
Vs(c) saturation voltage, clear state [1, 7]: 100 V | Vth(c) threshold voltage, clear state [1, 7]: 90 V | Vs(c) saturation voltage, clear state [1, 4]: 90 V | Vth(c) threshold voltage, clear state [1, 4]: 90 V | Vs(c) saturation voltage, clear state [1, 5]: 100 V | Vth(c) threshold voltage, clear state [1, 5]: 80 V | Vs(c) saturation voltage, clear state [1, 6]: 90 V | Vth(c) threshold voltage, clear state [1, 6]: 90 V | Vs(sc) saturation voltage, scattering state [1, 3]: 320 V | Vth(sc) threshold voltage, scattering state [1, 3]: 190 V

CCCCCCCCc1ccc([O-])cc1.[K+].c1ccc2c(c1)OCCOCCOc1ccccc1OCCOCCO2 [IVh8, complex of dibenzo-18-crown-6 ether with potassium 4-octylphenolate]
Vth(sc) threshold voltage, scattering state [1, 3]: 130 V

[K+].[O-]c1ccc(F)c(F)c1.c1ccc2c(c1)OCCOCCOc1ccccc1OCCOCCO2 [IVk, complex of dibenzo-18-crown-6 ether with potassium 3,4-difluorophenolate]
Vs(c) saturation voltage, clear state [1, 7]: 150 V | Vth(c) threshold voltage, clear state [1, 7]: 100 V | Vs(c) saturation voltage, clear state [1, 4]: 150 V | Vth(c) threshold voltage, clear state [1, 4]: 100 V | Vs(c) saturation voltage, clear state [1, 5]: 140 V | Vth(c) threshold voltage, clear state [1, 5]: 100 V | Vth(c) threshold voltage, clear state [1, 6]: 140 V | Vs(sc) saturation voltage, scattering state [1, 3]: 230 V | Vth(sc) threshold voltage, scattering state [1, 3]: 110 V

N#Cc1c(F)cc([O-])cc1F.[K+].c1ccc2c(c1)OCCOCCOc1ccccc1OCCOCCO2 [IVn, complex of dibenzo-18-crown-6 ether with potassium 3,5-difluoro-4-cyanophenolate]
Vs(c) saturation voltage, clear state [1, 13]: 140 V | Vth(c) threshold voltage, clear state [1, 13]: 100 V | Vs(c) saturation voltage, clear state [1, 14]: 140 V | Vth(c) threshold voltage, clear state [1, 14]: 100 V | Vs(c) saturation voltage, clear state [1, 15]: 120 V | Vth(c) threshold voltage, clear state [1, 15]: 90 V | Vs(c) saturation voltage, clear state [1, 16]: 110 V | Vth(c) threshold voltage, clear state [1, 16]: 90 V | Vs(sc) saturation voltage, scattering state [1, 17]: 220 V | Vth(sc) threshold voltage, scattering state [1, 17]: 200 V | Vs(c) saturation voltage, clear state [1, 7]: 140 V | Vth(c) threshold voltage, clear state [1, 7]: 100 V | Vth(c) threshold voltage, clear state [1, 4]: 130 V | Vth(c) threshold voltage, clear state [1, 5]: 130 V | Vth(c) threshold voltage, clear state [1, 6]: 130 V | Vs(sc) saturation voltage, scattering state [1, 3]: 240 V | Vth(sc) threshold voltage, scattering state [1, 3]: 90 V

complex of 18-crown-6 ether with potassium bromide [IIIb]
Vs(c) saturation voltage, clear state [1, 8]: 100 V | Vth(c) threshold voltage, clear state [1, 8]: 80 V | Vs(sc) saturation voltage, scattering state [1, 9]: 270 V | Vth(sc) threshold voltage, scattering state [1, 9]: 120 V

complex of 18-crown-6 ether with sodium dodecyl-1-sulphonate [V.e12]
Vth(c) threshold voltage, clear state [1, 8]: 70 V | Vs(sc) saturation voltage, scattering state [1, 9]: 280 V | Vth(sc) threshold voltage, scattering state [1, 9]: 260 V

complex of dibenzo-18-crown-6 ether with potassium bromide [IVb]
Vs(c) saturation voltage, clear state [1, 8]: 150 V | Vth(c) threshold voltage, clear state [1, 8]: 150 V | Vs(sc) saturation voltage, scattering state [1, 9]: 330 V | Vth(sc) threshold voltage, scattering state [1, 9]: 120 V

complex of dibenzo-18-crown-6 ether with potassium chlorate (VII) [IVc]
Vth(c) threshold voltage, clear state [1, 7]: 130 V | Vth(c) threshold voltage, clear state [1, 4]: 130 V | Vth(sc) threshold voltage, scattering state [1, 3]: 100 V

tetramethylammonium dodecylbenzenesulphonate [I.1g12, reference compound]
dynamic scattering (observation) [1, 3]: not observed up to voltage 400V; also recorded: no dynamic scattering
